The source of these data is paper PMC6063905.

Results are given in words; binding and its absence hold for the method and conditions named. Binding seen in cells or lysates may run through a third protein.

The target of test [1] is T1, Ldb16-TAP (yeast (endogenous in strains isogenic to BY4741 or BY4742)) (UniProt P25587).
T1 sequence: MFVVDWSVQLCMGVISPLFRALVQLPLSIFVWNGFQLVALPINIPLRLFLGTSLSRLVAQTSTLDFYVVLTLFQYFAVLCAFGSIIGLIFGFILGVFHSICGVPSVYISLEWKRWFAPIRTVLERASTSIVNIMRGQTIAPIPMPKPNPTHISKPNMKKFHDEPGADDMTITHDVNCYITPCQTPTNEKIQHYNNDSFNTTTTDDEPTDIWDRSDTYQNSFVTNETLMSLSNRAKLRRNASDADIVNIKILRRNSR
The test is described as follows: co-IP; TAP-tagged bait isolated overnight on calmodulin sepharose 4B beads from crude membranes solubilised in 1% digitonin; 50 mM Tris pH 7.4, 150 mM NaCl, 2 mM MgCl2, 4 °C; eluates analysed by SDS-PAGE and immunoblotting.

Test [2] concerns the target T2, Fld1-TAP (yeast (endogenous in strains isogenic to BY4741 or BY4742)) (UniProt Q06058).
T2 sequence: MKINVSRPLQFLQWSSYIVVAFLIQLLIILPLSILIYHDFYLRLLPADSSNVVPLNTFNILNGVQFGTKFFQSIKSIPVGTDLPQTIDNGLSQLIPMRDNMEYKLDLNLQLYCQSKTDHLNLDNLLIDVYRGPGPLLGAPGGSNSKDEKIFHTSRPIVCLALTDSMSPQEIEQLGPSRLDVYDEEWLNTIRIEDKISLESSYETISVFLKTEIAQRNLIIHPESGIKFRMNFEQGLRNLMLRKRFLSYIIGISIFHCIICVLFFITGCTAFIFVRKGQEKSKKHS
The test is described as above.

B1: Pex30 (protein, UniProt Q06169 1-523)
chain: MSGNTTNVHETRAKFAETLQPRIGGNTTKVIRAALEKNEAESGVSEDNDNGSLEKVNVATSPLLTSTPPTISKALVKLYPYLILIDEFLNVVTWTGKNIWSSVLMLCLFITTVEYFETLVKYFGHLAIIAILWGYSLLDNYIEGTLSSSPTLEDIALLMNRVSLKSDILLSPMVNLGTQDIQRLLYTTVILSPIYVMITWLLLPPRSLMLMVGMFLLTYHSPWSKVARRLLWKFKIVRLLVFYVTGLDLGGINKDQGIFATVQKQVKKLASTENSNGVLSDSKPIRFTYVLYENQRRWLGIGWKPSMLSYERTPWTDEFLNEAPSPENFHLPEETNTMVWRWVDKTWRLDMTNDGAIQVPNSKARTSADPSPDEGFIYYDNTWKKPSKEDSFSKYTRRRRWVRTAELVKTSDFDESVINSNRNSAIEQKVEENSTNGLTAEQELGSNKQEKDNAKKVGEPTTEETKEFAEASNINEGEFERISSTDEEVLKSRARDRLAKVLDDTEEKEQSNPTIGRDSKKAV
For B1, the binding entry in test [1] and in test [2] was “no binding” throughout.
